PubChem BioAssay AID1224830, NIAID – 2016
Here is a random part of about 18,000 reagents. Of all reagents, about 2,900 (16%) were called active. 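Calls are made per well; low scores hint the gene aids the LPS response, high scores that it dampens it.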 Unmarked entries are inactive. Repeated entries: four replicate wells of each siRNA pool. Reagent sequences are not shown.

- Test: 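Regulators of TLR4 signalling towards TNF-alpha in macrophage-like cells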 (primary screen)
- Cells: human THP-1 monocytic leukaemia cells, TNF dual-luciferase reporter clone, PMA-differentiated to macrophage-like cells
- Reagents: siRNA pool against human genes, 50 nM
- Timing: LPS for 4 h, given about 3 days after siRNA transfection
- Conditions: bacterial LPS (TLR4 ligand), 10 ng/ml
- Read-out: 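Ratio of firefly to renilla light, scaled to the plate median and expressed as a robust z-score per replicate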
- Direction: TNF reporter robust z-score: higher = stronger TNF reporter response to LPS
- Rule for the call: 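a well is active when its z-score exceeds 2.8 or falls below -1.5; control wells carry no call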

{"gene": "MALL (GeneID 7851)", "TNF reporter robust z-score": 1.14}
{"gene": "MALL (GeneID 7851)", "TNF reporter robust z-score": 1.47}
{"gene": "MALL (GeneID 7851)", "TNF reporter robust z-score": 1.1}
{"gene": "MALL (GeneID 7851)", "TNF reporter robust z-score": 2.62}
{"gene": "SELPLG (GeneID 6404)", "TNF reporter robust z-score": 0.17}
{"gene": "SELPLG (GeneID 6404)", "TNF reporter robust z-score": -0.82}
{"gene": "SELPLG (GeneID 6404)", "TNF reporter robust z-score": -0.98}
{"gene": "SELPLG (GeneID 6404)", "TNF reporter robust z-score": -0.52}
{"gene": "TRIM28 (GeneID 10155)", "TNF reporter robust z-score": -1.2}
{"gene": "TRIM28 (GeneID 10155)", "TNF reporter robust z-score": 0.64}
{"gene": "TRIM28 (GeneID 10155)", "TNF reporter robust z-score": -0.3}
{"gene": "TRIM28 (GeneID 10155)", "TNF reporter robust z-score": -0.08}
{"gene": "DNAH2 (GeneID 146754)", "TNF reporter robust z-score": "-1.93 (active)"}
{"gene": "DNAH2 (GeneID 146754)", "TNF reporter robust z-score": -1.21}
{"gene": "DNAH2 (GeneID 146754)", "TNF reporter robust z-score": -0.92}
{"gene": "DNAH2 (GeneID 146754)", "TNF reporter robust z-score": -0.61}
{"gene": "SPATA31H1 (GeneID 84226)", "TNF reporter robust z-score": 1.44}
{"gene": "SPATA31H1 (GeneID 84226)", "TNF reporter robust z-score": 1.11}
{"gene": "SPATA31H1 (GeneID 84226)", "TNF reporter robust z-score": 1.2}
{"gene": "SPATA31H1 (GeneID 84226)", "TNF reporter robust z-score": 0.8}
{"gene": "OMD (GeneID 4958)", "TNF reporter robust z-score": -0.39}
{"gene": "OMD (GeneID 4958)", "TNF reporter robust z-score": -0.17}
{"gene": "OMD (GeneID 4958)", "TNF reporter robust z-score": -0.59}
{"gene": "OMD (GeneID 4958)", "TNF reporter robust z-score": -0.83}
{"gene": "MYO1G (GeneID 64005)", "TNF reporter robust z-score": 1.58}
{"gene": "MYO1G (GeneID 64005)", "TNF reporter robust z-score": 1.51}
{"gene": "MYO1G (GeneID 64005)", "TNF reporter robust z-score": -0.1}
{"gene": "MYO1G (GeneID 64005)", "TNF reporter robust z-score": 0.32}

Next part (5 carried over from the part before).
{"gene": "OMD (GeneID 4958)", "TNF reporter robust z-score": -0.83}
{"gene": "MYO1G (GeneID 64005)", "TNF reporter robust z-score": 1.58}
{"gene": "MYO1G (GeneID 64005)", "TNF reporter robust z-score": 1.51}
{"gene": "MYO1G (GeneID 64005)", "TNF reporter robust z-score": -0.1}
{"gene": "MYO1G (GeneID 64005)", "TNF reporter robust z-score": 0.32}
{"gene": "IFT88 (GeneID 8100)", "TNF reporter robust z-score": "4.49 (active)"}
{"gene": "IFT88 (GeneID 8100)", "TNF reporter robust z-score": 1.27}
{"gene": "IFT88 (GeneID 8100)", "TNF reporter robust z-score": 1.97}
{"gene": "IFT88 (GeneID 8100)", "TNF reporter robust z-score": "3.24 (active)"}
{"gene": "DDX39A (GeneID 10212)", "TNF reporter robust z-score": "-1.8 (active)"}
{"gene": "DDX39A (GeneID 10212)", "TNF reporter robust z-score": -1.24}
{"gene": "DDX39A (GeneID 10212)", "TNF reporter robust z-score": -1.49}
{"gene": "DDX39A (GeneID 10212)", "TNF reporter robust z-score": -0.92}
{"gene": "MAP4K5 (GeneID 11183)", "TNF reporter robust z-score": -0.32}
{"gene": "MAP4K5 (GeneID 11183)", "TNF reporter robust z-score": 0.58}
{"gene": "MAP4K5 (GeneID 11183)", "TNF reporter robust z-score": -0.9}
{"gene": "MAP4K5 (GeneID 11183)", "TNF reporter robust z-score": 0.31}
{"gene": "RWDD2B (GeneID 10069)", "TNF reporter robust z-score": 2.4}
{"gene": "RWDD2B (GeneID 10069)", "TNF reporter robust z-score": "3.32 (active)"}
{"gene": "RWDD2B (GeneID 10069)", "TNF reporter robust z-score": "3.51 (active)"}
{"gene": "RWDD2B (GeneID 10069)", "TNF reporter robust z-score": 2.72}
{"gene": "CMPK2 (GeneID 129607)", "TNF reporter robust z-score": -0.65}
{"gene": "CMPK2 (GeneID 129607)", "TNF reporter robust z-score": 0.02}
{"gene": "CMPK2 (GeneID 129607)", "TNF reporter robust z-score": -0.49}
{"gene": "CMPK2 (GeneID 129607)", "TNF reporter robust z-score": -0.44}
{"gene": "RNF2 (GeneID 6045)", "TNF reporter robust z-score": 2.12}
{"gene": "RNF2 (GeneID 6045)", "TNF reporter robust z-score": 0.68}
{"gene": "RNF2 (GeneID 6045)", "TNF reporter robust z-score": 0.82}
{"gene": "RNF2 (GeneID 6045)", "TNF reporter robust z-score": 0.66}
{"gene": "IGDCC4 (GeneID 57722)", "TNF reporter robust z-score": 0.74}
{"gene": "IGDCC4 (GeneID 57722)", "TNF reporter robust z-score": 0.2}
{"gene": "IGDCC4 (GeneID 57722)", "TNF reporter robust z-score": 1.02}
{"gene": "IGDCC4 (GeneID 57722)", "TNF reporter robust z-score": 1.25}
{"gene": "RTN4IP1 (GeneID 84816)", "TNF reporter robust z-score": "-1.9 (active)"}
{"gene": "RTN4IP1 (GeneID 84816)", "TNF reporter robust z-score": -1.28}
{"gene": "RTN4IP1 (GeneID 84816)", "TNF reporter robust z-score": -1.23}
{"gene": "RTN4IP1 (GeneID 84816)", "TNF reporter robust z-score": -0.61}
